# Measured values from PubChem BioAssay AID540256 (National Center for Advancing Translational Sciences (NCATS), 2011).
# Among all 300,000 compounds or so, about 3,700 (1.2%) were called active. The shares of active, inactive and inconclusive entries below differ from those in the screen. Calls come from the whole dose curve; tested in HEK293 cells. A potency beside an inconclusive call is a rough fit, not a confirmed value.
# Assay: qHTS for Inhibitors of binding or entry into cells for Lassa Virus; note: nearly all actives have a fitted effect of over 50% in size
# Settings: Lassa virus pseudotype entry inhibition, cell reporter; activity change, negative = inhibition: at 37.9 µM (top of the series) unless noted
# % is set by controls: 0 for no effect and ±100 for the full control effect; potency is the fitted concentration of half-maximal effect.
Structure (SMILES),Potency,"activity change, negative = inhibition"
Cc1ccc(-c2nn3c(C)nnc3s2)cc1NC(=O)c1cccnc1,"inconclusive: 1.26 µM [inhibitor, single point]",
CC1(C)CCN(Cc2ccccc2)C1CC#N (stereo not drawn),"inconclusive: 4.61 µM [activator, full curve, poor fit]",
C=C(C)C(=O)OCC(=O)NCc1ccccc1,,inactive: -10.2%
CCCC(=O)Nc1ccc(C(=O)/C=C/c2ccc(SC)cc2)cc1,"inconclusive: 11.2 µM [inhibitor, partial curve]",
CCNCCC(=O)N1c2ccccc2Sc2ccc(C(F)(F)F)cc21,"inconclusive: 12.6 µM [inhibitor, single point]",
Cc1cccc(N=C2NC(=O)C(CO)(CO)S2)c1,"inconclusive: 10 µM [inhibitor, partial curve, poor fit]",
CCOc1ccc(CSC2=NCCN2)cc1Cl,"inconclusive: 29.1 µM [inhibitor, partial curve, poor fit]",
Cc1cccc(Oc2ccc(S(=O)(=O)N3CCCCC3)cc2N)c1,"inconclusive: 13 µM [inhibitor, partial curve]",
CCOc1cc(CNC(=O)c2ccc3nc(CCc4ccccc4)oc3c2)ccc1OC,"inconclusive: 14.1 µM [inhibitor, partial curve, poor fit]",
O=[N+]([O-])c1ccc(O)c(/C=N/Nc2nc3ccccc3[nH]2)c1,active: 3.55 µM,
COc1ccc(CN(Cc2ccco2)c2cnc(S(C)(=O)=O)nc2C(=O)Nc2ccc(C)cc2C)cc1,"inconclusive: 35.5 µM [inhibitor, single point]",
CCOC(=O)c1cccc(C(=O)OCC)n1,,inactive: 10.6%
CCCc1cc(C(=O)Nc2cccc(Cl)c2C)no1,,inactive: -23.7%
C[C@]12CCC3C(CC[C@H]4C[C@@H](O)CC[C@]34C)[C@H]1C=CC2=O (stereo partly drawn),"inconclusive: 22.4 µM [inhibitor, single point]",
O=C(NCc1cccnc1)c1ccc2c(c1)C(=O)N(Cc1ccccc1)C2=O,,inactive: 5.69%
CCOc1ccccc1NC(=O)/C=C/c1ccc(S(=O)(=O)N2CCOCC2)cc1,"inconclusive: 35.5 µM [inhibitor, single point]",
Cc1sc(NC(=O)Cc2ccc3c(c2)OCO3)nc1-c1ccc2c(c1)CCN2C(=O)c1ccc(F)cc1,"inconclusive: 22.4 µM [inhibitor, single point]",
COc1ccc(CCN2C(=O)C3C4C=CC(C3C2=O)C2C(=O)N(CCc3ccc(OC)c(OC)c3)C(=O)C42)cc1OC (stereo not drawn),"inconclusive: 14.6 µM [inhibitor, partial curve, poor fit]",
NC(=O)COc1c(F)cc(SCCNS(=O)(=O)c2ccccc2)cc1F,"inconclusive: 25.9 µM [inhibitor, single point]",
CC(C)c1c(O)cc(-c2ccncc2)n(-c2ccc(Cl)cc2)c1=O,"inconclusive: 0.562 µM [inhibitor, partial curve, poor fit]",
Cn1ncc(N=Cc2ccccc2)c1C(=O)Nc1cccc(Cl)c1,"inconclusive: 6.31 µM [inhibitor, single point]",
CCn1cc2nc(SCc3cc(C)ccc3C)n(Cc3ccc(OC)cc3)c(=O)c2n1,"inconclusive: 6.31 µM [inhibitor, full curve, poor fit]",
Cc1ccccc1-c1nnc(-c2ccc(Cl)cc2)o1,"inconclusive: 3.26 µM [activator, single point]",

Structure (SMILES),Potency,"activity change, negative = inhibition"
CCOC(=O)CCc1ccc(NC(=O)/C=C/c2ccc([N+](=O)[O-])o2)cc1,active: 7.08 µM,
CN(/C=C/C(=O)C(F)(F)F)Cc1ccccc1,,inactive: -11.2%
FC(F)(F)c1cccc(NC(=S)N2CCN(c3ccccc3)CC2)c1,"inconclusive: 12.6 µM [inhibitor, partial curve, poor fit]",
COc1cccc(C(C)NC(=O)Nc2ccccc2Cl)c1 (stereo not drawn),"inconclusive: 18.3 µM [inhibitor, single point]",
C=CCn1c(SCc2c(C(=O)OC)sc(N)c2C(=O)OC)nnc1-c1ccc(Br)cc1,,inactive: -16.7%
COc1ccccc1NC(=O)c1c(N=Cc2c(O)ccc3ccccc23)cnn1C,"inconclusive: 5.8 µM [inhibitor, full curve, poor fit]",
COc1ccccc1-c1nnc(C2CCN(C(=O)c3ccc(Cl)cc3)CC2)o1,"inconclusive: 35.5 µM [activator, single point]",
COc1ccc(Br)cc1CN(C)CC(O)COc1ccc(Br)cc1 (stereo not drawn),"inconclusive: 8.91 µM [inhibitor, partial curve, poor fit]",
COc1ccccc1N(Cc1ccccc1)S(=O)(=O)c1cccc(C(=O)Nc2ccc(C)cn2)c1,"inconclusive: 0.891 µM [inhibitor, full curve, poor fit]",
O=C1CC(=O)Nc2cc(S(=O)(=O)NCc3cccs3)ccc2N1,"inconclusive: 6.31 µM [activator, single point]",
O=C(COC(=O)c1ccccn1)NC1CCCCC1,"inconclusive: 12.6 µM [activator, partial curve, poor fit]",
CCC(=O)N1CCc2cc(Br)cc(S(=O)(=O)CCC(=O)NCc3ccc(F)cc3)c21,"inconclusive: 2.82 µM [inhibitor, partial curve, poor fit]",
COc1ccc(Br)cc1C(=O)NC(=S)Nc1ccc(CN2CCOCC2)cc1,,inactive: 5.21% [at 46.1 µM]
O=C1NC(=O)C(=Cc2ccccc2[N+](=O)[O-])S1,"inconclusive: 22.4 µM [inhibitor, single point]",
COc1ccc(CCNc2cc(N3CCN(C(=O)c4ccc(C)cc4)CC3)ccc2[N+](=O)[O-])cc1OC,,inactive: 8.4%
O=C(C1CCN(Cc2ccc(OCc3ccccc3)cc2)CC1)N1CCCC1,,inactive: -7.43%
O=C(COc1ccc([N+](=O)[O-])cc1)Nc1ccccc1C(=O)NC1CC1,"inconclusive: 22.4 µM [inhibitor, single point]",
CCc1ccc(N(C)S(=O)(=O)c2ccc3[nH]cc(C(=O)NCC4CCCO4)c(=O)c3c2)cc1 (stereo not drawn),,inactive: 4.52% [at 46.1 µM]
O=C(CSc1ccc2c(c1)OCCO2)Nc1ccc(Cl)cn1,"inconclusive: 0.291 µM [inhibitor, partial curve, poor fit]",
CCOC(=O)c1oc2ccccc2c1NC(=O)c1cccc(OC)c1OC,"inconclusive: 29.1 µM [inhibitor, single point]",
OCC1O[C@H](O)C(Cl)C(O)C1O (stereo partly drawn),"inconclusive: 5.8 µM [activator, partial curve, poor fit]",
COc1ccc(C(=O)/C=C/Nc2ccccn2)cc1,"inconclusive: 0.461 µM [inhibitor, full curve, poor fit]",
CCn1cc(C(=O)NCc2ccc(C)cc2)c(=O)c2cc(S(=O)(=O)N3CCc4ccccc4C3)ccc21,"inconclusive: 7.08 µM [inhibitor, partial curve, poor fit]",

Structure (SMILES),Potency,"activity change, negative = inhibition"
Cc1ccc(Nc2ccc(C(=O)NCCc3ccccc3)cn2)cc1,,inactive: -18.3%
O=C(CN1CCCN(Cc2ccc(F)cc2)S1(=O)=O)NCc1ccccc1Cl,"inconclusive: 35.5 µM [inhibitor, single point]",
CCn1c(/C=C/c2cccc([N+](=O)[O-])c2)nc2ccccc2c1=O,,inactive: -13.2%
CN(CC(=O)Nc1ccccc1Br)C(=O)CCC1CCCC1,,inactive: 18.5%
Cc1ccc(-n2nc3c(=O)n(CCCC(=O)NCc4ccccc4F)nc(C)c3c2C)cc1,"inconclusive: 3.55 µM [activator, partial curve, poor fit]",
O=C(CSc1nc2ccncc2[nH]1)Nc1ccccc1C(F)(F)F,"inconclusive: 7.08 µM [inhibitor, full curve]",
COC(=O)c1oc2ccccc2c1N,"inconclusive: 1.26 µM [activator, single point]",
Cc1ccc(C(=O)N2CCc3ccccc32)cc1NC(=O)c1ccco1,"inconclusive: 35.5 µM [inhibitor, single point]",
COc1ccc(CNc2oc(-c3ccc(COc4ccc(OC)cc4)o3)nc2C#N)cc1,"inconclusive: 35.5 µM [inhibitor, single point]",
Fc1ccc(F)c(C2=NNC(=Nc3ccccc3F)SC2)c1,"inconclusive: 29.1 µM [inhibitor, single point]",
COc1ccc(C2C(=O)N(C3CCC(C)CC3)CC(=O)N2CCC2=CCCCC2)cc1OC (stereo not drawn),"inconclusive: 1.78 µM [inhibitor, partial curve, poor fit]",
Cc1cccc(C)c1NC(=O)CN1C(=O)c2cccc3cccc1c23,,inactive: 3.19% [at 46.1 µM]
CC(C)OC(=O)n1c(=S)oc2ccccc21,,inactive: -20.9%
NC1=NC(=O)C(Cc2cccc(Cl)c2Cl)S1 (stereo not drawn),"inconclusive: 3.16 µM [inhibitor, partial curve, poor fit]",
COCCN(C(=O)COC(=O)CCCOc1ccc(OC)cc1)c1c(N)n(Cc2ccccc2)c(=O)[nH]c1=O,,inactive: -3.13%
Cn1c(=O)c2sccc2n(Cc2cccc(Br)c2)c1=O,,inactive: -4.3% [at 46.1 µM]
O=C(NC1CCCC1)C1CCN(C(=O)c2ccc(-c3ccccc3)cc2)CC1,"inconclusive: 12.6 µM [inhibitor, partial curve, poor fit]",
COCCNC(=O)CN(C(=O)c1ccc(N2CCCC2)nc1)c1ccccc1,,inactive: 14.1% [at 46.1 µM]
COc1ccc(C)cc1NC(=O)CSc1nc(=O)n(Cc2ccccn2)c2c1CCC2,,inactive: 12.6% [at 46.1 µM]
CC1(C)Cc2nc(-c3ccccc3)nc(NNC(=O)c3ccco3)c2CO1,,inactive: -0.419%
CCCc1cc(C(=O)Nc2nnc(C)s2)cs1,"inconclusive: 0.517 µM [activator, full curve, poor fit]",
CC(C)COP(=O)(OCC(C)C)C(O)c1ccc(N(C)C)cc1 (stereo not drawn),"inconclusive: 0.562 µM [inhibitor, full curve, poor fit]",

# 6 entries picked at random from those above:
Structure (SMILES),Potency,"activity change, negative = inhibition"
C=C(C)C(=O)OCC(=O)NCc1ccccc1,,inactive: -10.2%
COc1ccc(CNc2oc(-c3ccc(COc4ccc(OC)cc4)o3)nc2C#N)cc1,"inconclusive: 35.5 µM [inhibitor, single point]",
C[C@]12CCC3C(CC[C@H]4C[C@@H](O)CC[C@]34C)[C@H]1C=CC2=O (stereo partly drawn),"inconclusive: 22.4 µM [inhibitor, single point]",
OCC1O[C@H](O)C(Cl)C(O)C1O (stereo partly drawn),"inconclusive: 5.8 µM [activator, partial curve, poor fit]",
Cc1ccccc1-c1nnc(-c2ccc(Cl)cc2)o1,"inconclusive: 3.26 µM [activator, single point]",
NC(=O)COc1c(F)cc(SCCNS(=O)(=O)c2ccccc2)cc1F,"inconclusive: 25.9 µM [inhibitor, single point]",
